No constants are given. Whether binding was seen depends on the method and setting. Binding seen in cells or lysates may run through a third protein. Some results given as binding are weak or reduced against the parent protein; the word gives no strength.
Target: E-cadherin (UniProt P12830)
Experiment: co-immunoprecipitation with anti-E-cadherin antibody, immunoblot for β-catenin, A549 and H460 lysates

Sequences of proteins named here, by UniProt entry; tags and fusion partners are left off. Residues count along the entry.
UniProt P12830, residues 155-882: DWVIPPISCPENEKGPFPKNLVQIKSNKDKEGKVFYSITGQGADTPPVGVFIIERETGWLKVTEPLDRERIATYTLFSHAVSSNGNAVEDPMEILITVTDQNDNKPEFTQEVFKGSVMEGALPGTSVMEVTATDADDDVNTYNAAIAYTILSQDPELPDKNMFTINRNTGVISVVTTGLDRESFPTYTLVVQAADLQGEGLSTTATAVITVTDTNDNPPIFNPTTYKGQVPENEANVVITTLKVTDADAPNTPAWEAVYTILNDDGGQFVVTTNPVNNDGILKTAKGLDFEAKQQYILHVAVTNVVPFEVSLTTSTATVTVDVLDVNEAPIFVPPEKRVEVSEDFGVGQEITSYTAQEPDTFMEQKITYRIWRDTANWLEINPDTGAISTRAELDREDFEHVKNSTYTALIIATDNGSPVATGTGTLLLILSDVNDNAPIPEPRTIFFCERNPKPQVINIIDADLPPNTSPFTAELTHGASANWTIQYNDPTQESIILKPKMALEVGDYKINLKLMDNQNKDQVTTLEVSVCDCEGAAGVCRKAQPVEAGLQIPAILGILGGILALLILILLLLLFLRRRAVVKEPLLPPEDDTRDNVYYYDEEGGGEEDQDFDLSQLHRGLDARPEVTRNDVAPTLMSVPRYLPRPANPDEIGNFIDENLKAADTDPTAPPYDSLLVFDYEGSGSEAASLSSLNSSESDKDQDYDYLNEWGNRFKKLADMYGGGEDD
UniProt P35222, residues 2-781: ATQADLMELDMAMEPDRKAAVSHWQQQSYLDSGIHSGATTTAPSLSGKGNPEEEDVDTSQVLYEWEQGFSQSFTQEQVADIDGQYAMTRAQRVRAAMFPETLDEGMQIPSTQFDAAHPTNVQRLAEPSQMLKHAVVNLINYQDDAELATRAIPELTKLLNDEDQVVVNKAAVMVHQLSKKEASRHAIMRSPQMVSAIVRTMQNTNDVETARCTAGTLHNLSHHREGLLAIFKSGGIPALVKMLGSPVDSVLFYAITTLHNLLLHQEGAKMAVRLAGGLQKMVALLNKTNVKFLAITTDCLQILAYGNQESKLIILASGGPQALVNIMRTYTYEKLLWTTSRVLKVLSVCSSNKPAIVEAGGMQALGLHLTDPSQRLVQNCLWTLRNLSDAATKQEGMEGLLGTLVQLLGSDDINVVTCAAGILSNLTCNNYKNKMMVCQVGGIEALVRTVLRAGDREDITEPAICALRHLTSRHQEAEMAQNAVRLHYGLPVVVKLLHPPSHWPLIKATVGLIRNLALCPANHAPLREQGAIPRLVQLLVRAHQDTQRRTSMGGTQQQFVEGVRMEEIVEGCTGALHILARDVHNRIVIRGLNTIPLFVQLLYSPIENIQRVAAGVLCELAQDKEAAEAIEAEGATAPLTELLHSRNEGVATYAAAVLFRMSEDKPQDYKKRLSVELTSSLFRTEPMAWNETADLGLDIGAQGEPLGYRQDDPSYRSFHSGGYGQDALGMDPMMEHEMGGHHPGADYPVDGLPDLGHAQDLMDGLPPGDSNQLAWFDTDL

β-catenin (from UniProt P35222 2-781)
binding: binds

Reference: patent publication US20070009484A1, “Compositions and methods involving MDA-7 for the treatment of cancer” (Board of Regents, The University of Texas System, priority 2005, published 2007)
